Assay results: patent US4680283A (Merck & Co., Inc., priority 1986, dated 1987)

Experiment: general procedure: peptide synthesis; acyl azide (isoamyl nitrite/HCl)
Conditions: coupling step, side-chain lactam ring

PEPTIDE1{[pGlu].F.F.[R-Lac-Leu].M.[am]}$$$$V2.0
final HPLC purity (HPLC): 97% | step yield: 31%

Some peptides are written in HELM: one residue between dots, names in brackets for other building blocks, links after the first $.
